Data as given in publication PMC10879132.
Results are given in words; binding and its absence hold for the method and conditions named. Binding seen in cells or lysates may run through a third protein. Some binding calls cover weakened binding; strength is not graded here.

Amino acid sequences for entries named in this document (tags omitted).
UniProt Q6KC79: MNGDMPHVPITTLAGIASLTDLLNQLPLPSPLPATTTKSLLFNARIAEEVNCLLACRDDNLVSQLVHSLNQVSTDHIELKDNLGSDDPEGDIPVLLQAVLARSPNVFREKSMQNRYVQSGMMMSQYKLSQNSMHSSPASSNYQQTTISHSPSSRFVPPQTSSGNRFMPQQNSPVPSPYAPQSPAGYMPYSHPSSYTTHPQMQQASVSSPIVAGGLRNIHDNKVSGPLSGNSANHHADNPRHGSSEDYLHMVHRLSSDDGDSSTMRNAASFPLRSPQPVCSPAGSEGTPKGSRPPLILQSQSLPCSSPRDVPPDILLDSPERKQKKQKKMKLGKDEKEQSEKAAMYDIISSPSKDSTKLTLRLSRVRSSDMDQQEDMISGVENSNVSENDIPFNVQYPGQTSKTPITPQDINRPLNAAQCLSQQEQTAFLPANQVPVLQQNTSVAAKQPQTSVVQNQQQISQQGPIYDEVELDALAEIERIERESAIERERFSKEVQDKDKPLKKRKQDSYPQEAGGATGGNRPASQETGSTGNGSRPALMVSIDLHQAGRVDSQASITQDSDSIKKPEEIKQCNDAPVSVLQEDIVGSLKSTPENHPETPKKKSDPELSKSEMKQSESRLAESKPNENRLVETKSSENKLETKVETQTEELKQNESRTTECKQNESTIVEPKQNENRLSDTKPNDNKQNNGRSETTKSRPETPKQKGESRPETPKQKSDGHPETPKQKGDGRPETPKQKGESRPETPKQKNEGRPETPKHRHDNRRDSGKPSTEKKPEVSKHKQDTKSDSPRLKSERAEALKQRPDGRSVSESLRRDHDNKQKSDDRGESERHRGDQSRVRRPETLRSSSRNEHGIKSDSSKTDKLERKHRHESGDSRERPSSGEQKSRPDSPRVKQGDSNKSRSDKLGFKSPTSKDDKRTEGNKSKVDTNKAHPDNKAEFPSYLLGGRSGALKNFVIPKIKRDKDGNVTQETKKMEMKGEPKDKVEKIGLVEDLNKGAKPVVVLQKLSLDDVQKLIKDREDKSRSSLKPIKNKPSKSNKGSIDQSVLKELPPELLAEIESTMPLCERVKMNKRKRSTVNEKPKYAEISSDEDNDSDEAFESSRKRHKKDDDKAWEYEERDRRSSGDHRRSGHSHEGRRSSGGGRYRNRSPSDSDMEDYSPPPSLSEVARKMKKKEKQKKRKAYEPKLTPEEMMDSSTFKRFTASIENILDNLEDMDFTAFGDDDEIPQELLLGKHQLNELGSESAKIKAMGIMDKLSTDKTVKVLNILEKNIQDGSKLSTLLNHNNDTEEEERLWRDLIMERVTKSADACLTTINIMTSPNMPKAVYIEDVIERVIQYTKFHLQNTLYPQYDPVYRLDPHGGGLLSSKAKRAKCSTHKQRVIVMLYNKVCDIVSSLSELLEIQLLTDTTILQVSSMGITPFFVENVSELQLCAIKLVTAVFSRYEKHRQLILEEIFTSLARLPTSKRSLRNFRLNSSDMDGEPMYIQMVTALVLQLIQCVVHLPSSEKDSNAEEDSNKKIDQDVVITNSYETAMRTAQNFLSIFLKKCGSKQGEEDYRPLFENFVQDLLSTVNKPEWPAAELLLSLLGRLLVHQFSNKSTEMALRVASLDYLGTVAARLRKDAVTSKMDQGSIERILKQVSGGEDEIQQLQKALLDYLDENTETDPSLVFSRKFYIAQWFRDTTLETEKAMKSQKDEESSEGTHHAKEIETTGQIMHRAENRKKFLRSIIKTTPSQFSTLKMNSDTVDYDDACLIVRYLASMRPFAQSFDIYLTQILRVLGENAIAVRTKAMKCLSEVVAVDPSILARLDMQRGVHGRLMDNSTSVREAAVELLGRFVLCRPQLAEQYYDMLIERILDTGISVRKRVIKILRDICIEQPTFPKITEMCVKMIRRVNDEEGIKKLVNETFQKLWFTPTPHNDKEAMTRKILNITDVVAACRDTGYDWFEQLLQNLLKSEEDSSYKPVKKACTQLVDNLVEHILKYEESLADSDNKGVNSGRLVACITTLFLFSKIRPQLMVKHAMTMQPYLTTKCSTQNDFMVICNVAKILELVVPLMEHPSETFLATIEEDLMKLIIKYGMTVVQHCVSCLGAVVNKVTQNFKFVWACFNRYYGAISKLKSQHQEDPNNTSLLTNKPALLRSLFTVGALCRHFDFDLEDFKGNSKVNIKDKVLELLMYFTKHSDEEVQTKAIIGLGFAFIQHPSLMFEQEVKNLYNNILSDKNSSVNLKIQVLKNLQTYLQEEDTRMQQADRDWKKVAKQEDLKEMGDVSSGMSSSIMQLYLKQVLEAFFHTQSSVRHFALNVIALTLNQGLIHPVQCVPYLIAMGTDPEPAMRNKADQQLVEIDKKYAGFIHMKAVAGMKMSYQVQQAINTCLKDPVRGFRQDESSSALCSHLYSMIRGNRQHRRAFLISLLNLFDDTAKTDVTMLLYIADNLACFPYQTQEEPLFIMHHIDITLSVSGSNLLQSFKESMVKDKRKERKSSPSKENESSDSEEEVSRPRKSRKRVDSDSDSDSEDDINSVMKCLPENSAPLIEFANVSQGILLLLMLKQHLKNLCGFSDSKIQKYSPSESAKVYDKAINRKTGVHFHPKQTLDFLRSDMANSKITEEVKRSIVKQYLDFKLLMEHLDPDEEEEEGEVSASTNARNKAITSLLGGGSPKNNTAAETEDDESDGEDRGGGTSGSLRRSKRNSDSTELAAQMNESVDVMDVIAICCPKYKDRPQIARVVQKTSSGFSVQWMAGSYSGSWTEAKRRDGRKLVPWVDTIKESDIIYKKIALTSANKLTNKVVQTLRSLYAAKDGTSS
UniProt O15054: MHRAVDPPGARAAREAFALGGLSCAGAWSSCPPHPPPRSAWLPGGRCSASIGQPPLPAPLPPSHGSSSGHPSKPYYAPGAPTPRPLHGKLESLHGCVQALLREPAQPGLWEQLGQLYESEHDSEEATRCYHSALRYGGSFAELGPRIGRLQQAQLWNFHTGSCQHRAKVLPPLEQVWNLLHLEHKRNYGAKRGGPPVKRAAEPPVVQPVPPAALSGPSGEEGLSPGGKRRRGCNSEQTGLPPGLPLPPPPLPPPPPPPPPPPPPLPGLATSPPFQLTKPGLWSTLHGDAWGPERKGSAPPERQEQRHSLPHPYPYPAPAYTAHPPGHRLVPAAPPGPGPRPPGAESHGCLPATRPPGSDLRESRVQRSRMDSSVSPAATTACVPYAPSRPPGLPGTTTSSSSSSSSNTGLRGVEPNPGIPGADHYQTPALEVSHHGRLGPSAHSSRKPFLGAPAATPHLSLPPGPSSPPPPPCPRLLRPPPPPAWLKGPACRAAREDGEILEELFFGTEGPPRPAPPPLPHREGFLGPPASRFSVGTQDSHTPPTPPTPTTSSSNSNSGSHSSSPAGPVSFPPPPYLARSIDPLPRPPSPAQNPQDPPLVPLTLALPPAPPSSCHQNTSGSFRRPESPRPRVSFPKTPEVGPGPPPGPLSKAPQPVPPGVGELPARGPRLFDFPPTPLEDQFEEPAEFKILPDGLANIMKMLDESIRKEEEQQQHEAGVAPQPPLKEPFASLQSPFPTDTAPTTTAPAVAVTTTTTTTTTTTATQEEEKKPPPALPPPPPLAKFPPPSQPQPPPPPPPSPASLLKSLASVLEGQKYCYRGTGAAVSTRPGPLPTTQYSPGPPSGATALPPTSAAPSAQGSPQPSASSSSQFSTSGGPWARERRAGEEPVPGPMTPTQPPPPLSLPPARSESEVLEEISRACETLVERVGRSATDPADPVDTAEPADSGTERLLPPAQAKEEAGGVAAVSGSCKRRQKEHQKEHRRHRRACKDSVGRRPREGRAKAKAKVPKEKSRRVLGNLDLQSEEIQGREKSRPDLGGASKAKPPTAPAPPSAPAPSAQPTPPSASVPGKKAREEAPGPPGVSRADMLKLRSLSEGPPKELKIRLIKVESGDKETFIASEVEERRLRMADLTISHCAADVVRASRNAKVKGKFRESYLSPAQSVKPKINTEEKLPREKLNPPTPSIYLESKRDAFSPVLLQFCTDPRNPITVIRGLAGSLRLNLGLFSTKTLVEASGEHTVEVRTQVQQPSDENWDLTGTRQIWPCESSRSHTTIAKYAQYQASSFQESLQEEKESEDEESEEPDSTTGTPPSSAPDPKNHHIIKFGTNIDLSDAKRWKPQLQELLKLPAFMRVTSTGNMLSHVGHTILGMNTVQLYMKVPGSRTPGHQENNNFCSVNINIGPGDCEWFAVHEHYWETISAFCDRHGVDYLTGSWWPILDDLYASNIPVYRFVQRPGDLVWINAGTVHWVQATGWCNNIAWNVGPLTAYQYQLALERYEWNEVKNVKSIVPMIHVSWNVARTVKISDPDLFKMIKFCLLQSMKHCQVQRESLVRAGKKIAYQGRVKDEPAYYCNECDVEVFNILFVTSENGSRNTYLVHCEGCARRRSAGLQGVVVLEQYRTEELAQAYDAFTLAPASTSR

Experiments:
[1] = target: T1, RAD21 cohesin complex component (RAD21) (human (endogenous in H1299 and H1650)) (UniProt O60216); assay: co-IP; competitive co-IP: H1299 or H1650 cells transfected with 0.5, 1 or 2 ug NIPBL expression vector, then co-IP with anti-RAD21 antibody; interaction of RAD21 with NIPBL or EZH2 evaluated
T1 sequence: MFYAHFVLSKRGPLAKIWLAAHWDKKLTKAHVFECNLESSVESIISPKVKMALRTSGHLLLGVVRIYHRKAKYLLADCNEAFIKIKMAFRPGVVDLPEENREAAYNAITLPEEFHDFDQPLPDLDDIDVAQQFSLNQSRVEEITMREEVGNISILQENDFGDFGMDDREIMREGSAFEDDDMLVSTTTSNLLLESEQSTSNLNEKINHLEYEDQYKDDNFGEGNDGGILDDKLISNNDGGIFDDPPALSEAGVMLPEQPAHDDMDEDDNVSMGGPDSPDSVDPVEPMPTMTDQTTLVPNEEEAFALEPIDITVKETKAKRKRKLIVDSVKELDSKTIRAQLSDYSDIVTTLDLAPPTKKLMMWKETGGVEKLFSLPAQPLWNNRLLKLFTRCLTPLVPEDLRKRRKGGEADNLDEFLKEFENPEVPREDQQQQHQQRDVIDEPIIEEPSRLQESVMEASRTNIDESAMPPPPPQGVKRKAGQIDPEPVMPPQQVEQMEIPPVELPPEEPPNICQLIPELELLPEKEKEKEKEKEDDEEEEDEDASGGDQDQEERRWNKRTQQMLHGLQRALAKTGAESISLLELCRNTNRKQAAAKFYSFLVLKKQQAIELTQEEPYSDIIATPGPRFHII

[2] = target: Nipped-B-Like Protein (NIPBL) (human (endogenous in H1299 and H1650)) (UniProt Q6KC79); assay: co-IP; lysate of H1299 and H1650 cells in nondenaturing lysis buffer, about 300 ug protein, 1 ug anti-NIPBL antibody and protein A/G magnetic beads overnight at 4 °C; Western blot for KDM6B; rabbit IgG as negative control

binding [1] | binding [2] | Substance
binds |  | NIPBL from the NIPBL expression vector (from UniProt Q6KC79 1-2804)
 | binds | lysine demethylase 6B (KDM6B) (from UniProt O15054 1-1643)
